The campaign covered roughly 580,000 compounds. About 6,100 (1.1%) were called active. Inconclusive means that the source gave no clear call. Such entries were picked first, then a sample of the others. The call rests on the fitted dose curve; in most records, active means well fitted inhibition curve with a large enough effect; inconclusive means small, poorly fitted or top-dose-only effect, or another doubt; inactive means no such curve, though single readings can be large or run the other way. Where the call is inconclusive, the potency comes from a doubtful curve fit.
Each compound was assayed against Polyunsaturated fatty acid lipoxygenase ALOX12 (Homo sapiens) (UniProt P18054) (assay: Primary qHTS assay for inhibitors of human arachidonate 12S-lipoxygenase (ALOX12): Round 2). Details: purified 12hLO, xylenol orange hydroperoxide absorbance; activity change, negative = inhibition: at 108 µM (top of the series) unless noted.
Outline: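 Purified human 12hLO at 150 nM in 25 mM Hepes, 0.01% Triton X-100, pH 7.0, preincubated 15 min at room temperature with compound. Reaction started with 40 uM arachidonic acid, 30 min at room temperature. Hydroperoxide measured by Fe-xylenol orange, 573/405 nm absorbance ratio.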
On the % scale 0 is the no-effect control and ±100 the full control effect; potency means the concentration at half of the fitted maximal effect.

By UniProt entry, the sequences of proteins in these tests, tags left out.
UniProt P18054, whole entry, looked up: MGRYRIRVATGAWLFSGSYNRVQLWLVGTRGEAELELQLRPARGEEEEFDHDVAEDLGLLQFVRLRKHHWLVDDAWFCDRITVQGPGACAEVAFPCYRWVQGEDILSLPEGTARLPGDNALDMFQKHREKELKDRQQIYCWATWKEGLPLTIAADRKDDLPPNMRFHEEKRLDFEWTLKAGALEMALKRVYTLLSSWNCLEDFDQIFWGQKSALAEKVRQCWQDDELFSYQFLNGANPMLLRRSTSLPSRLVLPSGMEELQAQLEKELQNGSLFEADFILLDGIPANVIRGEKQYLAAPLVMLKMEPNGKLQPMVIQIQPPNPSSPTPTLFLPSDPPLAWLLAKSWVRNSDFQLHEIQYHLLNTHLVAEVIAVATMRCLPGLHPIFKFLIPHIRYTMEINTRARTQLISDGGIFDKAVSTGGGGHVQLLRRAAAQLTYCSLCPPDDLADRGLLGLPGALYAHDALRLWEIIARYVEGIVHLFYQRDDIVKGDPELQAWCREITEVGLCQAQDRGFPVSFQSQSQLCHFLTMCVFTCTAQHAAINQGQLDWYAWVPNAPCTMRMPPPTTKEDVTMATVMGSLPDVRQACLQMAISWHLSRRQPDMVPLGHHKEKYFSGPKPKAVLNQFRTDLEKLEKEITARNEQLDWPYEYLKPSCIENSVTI

Structure (SMILES) | Potency | activity change, negative = inhibition
CCOC(=O)C1=C(C)Nc2nnnn2C1c1ccccc1Cl (stereo not drawn) | inconclusive: 112 µM [inhibitor, single point] | –
Cc1ccc(C)c(Cn2c3ccccc3c3cnn(CC(=O)NC(C)c4ccccc4)c(=O)c32)c1 (stereo not drawn) | inconclusive: 100 µM [inhibitor, partial curve, poor fit] | –
CCS(=O)(=O)Nc1cc(C(=O)OC)ccc1C(=O)OC | inconclusive: 28.2 µM [inhibitor, partial curve] | –
Oc1ccc2ccccc2c1C=NCCSSCCN=Cc1c(O)ccc2ccccc12 | inconclusive: 2.82 µM [inhibitor, full curve] | –
Cc1ccc2[nH]c(=O)c(CN(Cc3ccco3)S(=O)(=O)c3c(C)ccc4nsnc34)cc2c1 | – | inactive: -12%
COc1ccc2nc(SCC(=O)Nc3ccccc3)[nH]c2c1 | inconclusive: 70.8 µM [inhibitor, single point] | –
Cc1ccc(S(=O)(=O)N2CCC(=O)N([C@H](COCc3ccc(Cl)cc3)C(C)C)CC2)cc1 | inconclusive: 44.7 µM [inhibitor, partial curve, poor fit] | –
CC(=O)c1cccc(NC(=O)/C(=C\c2cccnc2)NC(=O)c2ccccc2)c1 | inconclusive: 2.82 µM [inhibitor, single point] | –
COC(=O)c1cc2c(c3c4cc(F)ccc4n(C(=O)c4ccccc4)c13)C(=O)N(Cc1ccco1)C2 | inconclusive: 15.8 µM [inhibitor, partial curve, poor fit] | –
COC(=O)c1cc2c(c3c4cc(OC)ccc4n(S(=O)(=O)c4ccc(OC)cc4)c13)C(=O)N(C)C2 | inconclusive: 22.4 µM [inhibitor, partial curve, poor fit] | –
O=C1NC[C@H](CCCCN2C[C@H](Cc3ccccc3)N(Cc3ccccc3)C(=O)C2=O)N(CCC2CCCCC2)C1=O | inconclusive: 89.1 µM [inhibitor, single point] | –
Cn1nc(C(=O)NCC2CCN(C3CC3)C2)c2ccccc2c1=O (stereo not drawn) | inconclusive: 70.8 µM [inhibitor, single point] | –
O=C(NNC(=S)NCc1ccc(Cl)cc1)c1ccc(Br)o1 | – | inactive: 7.17%
CCc1ccc(-n2c(CCC(=O)O)ccc2-c2ccc(F)cc2)cc1 | – | inconclusive: -33.2% [inhibitor]
c1coc(-c2cc3nc(NC4CCCCC4)ccn3n2)c1 | active: 44.7 µM | –
O=C(Nc1ccccc1)C1=C[C@H](c2ccc(C(F)(F)F)cc2)C[C@H](OCCCCO)O1 | inconclusive: 44.7 µM [inhibitor, partial curve, poor fit] | –
CCc1cccc(NC(=O)CCSCCC(=O)Nc2cccc(CC)c2)c1 | – | inactive: -5.08%
CC1CC(C)CN(C/C=C/c2ccccc2[N+](=O)[O-])C1 (stereo not drawn) | inconclusive: 35.5 µM [inhibitor, partial curve, poor fit] | –
Cc1nc2c(c(NCCc3cnn(-c4ccccc4)c3)n1)CCNCC2 | – | inactive: 84.3%
C=C1C(=O)O[C@H]2[C@@H]1CCC(C)=CCC[C@@]1(C)O[C@@H]21 | inconclusive: 24.3 µM [inhibitor, partial curve, poor fit] | –
COc1cccc(/C=C(/C#N)C(=O)c2c(Cl)cccc2Cl)c1OC | active: 20 µM | –

Part of the list above in order of count of non-hydrogen atoms, falling:
Structure (SMILES) | Potency | activity change, negative = inhibition
Cc1ccc(S(=O)(=O)N2CCC(=O)N([C@H](COCc3ccc(Cl)cc3)C(C)C)CC2)cc1 | inconclusive: 44.7 µM [inhibitor, partial curve, poor fit] | –
COc1cccc(/C=C(/C#N)C(=O)c2c(Cl)cccc2Cl)c1OC | active: 20 µM | –
c1coc(-c2cc3nc(NC4CCCCC4)ccn3n2)c1 | active: 44.7 µM | –
CCS(=O)(=O)Nc1cc(C(=O)OC)ccc1C(=O)OC | inconclusive: 28.2 µM [inhibitor, partial curve] | –

Later entries:

Structure (SMILES) | Potency | activity change, negative = inhibition
O=C(Cc1ccccc1)NCCS(=O)(=O)N1CCN(c2cccc(Cl)c2)CC1 | inconclusive: 141 µM [inhibitor, single point] | –
CC(C)CCn1cnc2c(cnn2-c2ccc(F)cc2)c1=O | – | inactive: 0%
CCOc1cc(C(=O)Nc2ccc(OC)cc2)nc2ccc(Cl)cc12 | inconclusive: 35.5 µM [inhibitor, partial curve, poor fit] | –
COc1ccc(C2=NOC3(CC(=O)N(c4ccc(Cl)cc4)C3=O)C2)c(OC)c1 (stereo not drawn) | inconclusive: 44.7 µM [inhibitor, partial curve, poor fit] | –
Cc1ccc(SCCNC(=S)Nc2ccc(C)c(C)c2)cc1 | inconclusive: 44.7 µM [inhibitor, partial curve, poor fit] | –
CCC(=O)NC(=S)Nc1ccc(NC(=S)NC(=O)c2ccc(C)cc2)cc1 | inconclusive: 39.8 µM [inhibitor, partial curve] | –
Cc1ccc(/C=C2/C(=O)c3ccc(C(=O)O)cc3C2=O)o1 | inconclusive: 50.1 µM [inhibitor, partial curve, poor fit] | –
CC(C)Cc1ccc(C(C)C(N)=NCCc2ccccc2)cc1 (stereo not drawn) | inconclusive: 50.1 µM [inhibitor, partial curve, poor fit] | –
O=C(c1csc2nc(-c3ccc(C(F)(F)F)cc3)cn12)N1CCN2CCCC2C1 (stereo not drawn) | – | inactive: 16%
COC(=O)c1cc2c(c3c4ccccc4n(S(=O)(=O)c4ccc(C)cc4)c13)C(=O)N(C)C2 | inconclusive: 44.7 µM [inhibitor, partial curve] | –
Cc1nc(-c2ccc(F)cc2)sc1C(=O)NC1C=CS(=O)(=O)C1 (stereo not drawn) | inconclusive: 20 µM [inhibitor, single point] | –
COc1cccc(=O)c2c(C)oc(C)c12 | inconclusive: 50.1 µM [inhibitor, partial curve, poor fit] | –
Cc1ccsc1C(=O)N1CCC[C@H](n2c(=O)n(CC3CC3)c3cccnc32)C1 | – | inactive: 2.09%
CCn1ccc(C(=O)N2CCC3(CC2)c2[nH]c4ccccc4c2CCN3C)n1 | inconclusive: 12.6 µM [inhibitor, partial curve, poor fit] | –
CCC(=O)Nc1ccc(-c2csc(NCCN(CC)CC)n2)cc1 | inconclusive: 44.7 µM [inhibitor, partial curve, poor fit] | –
CC1CCN(CC(=O)NC(c2cccs2)C(C)C)CC1 (stereo not drawn) | – | inactive: -40%
CCCCCn1c(SCCCc2ccccc2)nc2c1c(=O)[nH]c(=O)n2C | inconclusive: 39.8 µM [inhibitor, partial curve, poor fit] | –
CC1CCN(C(=O)C[C@@H]2c3nc(NC(=O)c4ccc(F)cc4)sc3C[C@@H]3[C@](C)(CO)[C@H](O)CC[C@]32C)CC1 | – | inactive: 1.14%
NC(=O)c1oc2ccccc2c1NC(=O)c1nc2ccccc2s1 | – | inactive: 218%
CCc1nnc(NS(=O)(=O)c2ccc(NC(=S)NC(=O)c3cccs3)cc2)s1 | active: 22.4 µM | –
CCc1ccc(NC(=O)CSc2nc3ncccc3[nH]2)cc1 | inconclusive: 44.7 µM [inhibitor, partial curve, poor fit] | –

One compound at a time, as listed above. Values in the order: Potency | activity change, negative = inhibition
`CC(=O)c1cccc(NC(=O)/C(=C\c2cccnc2)NC(=O)c2ccccc2)c1` reads inconclusive: 2.82 µM [inhibitor, single point] | –
`CCn1ccc(C(=O)N2CCC3(CC2)c2[nH]c4ccccc4c2CCN3C)n1` reads inconclusive: 12.6 µM [inhibitor, partial curve, poor fit] | –

Later entries:

Structure (SMILES) | Potency | activity change, negative = inhibition
O=C(COc1cccc(F)c1)Nc1nc(-c2ccccn2)cs1 | inconclusive: 56.2 µM [inhibitor, partial curve, poor fit] | –
CCc1nc2c(c(-c3ccc(Cl)cc3)n1)CCN(Cc1cccc3ccccc13)CC2 | inconclusive: 10 µM [inhibitor, partial curve] | –
CCCn1c(=NC(C)=O)c(C(=O)OCC)cc2c(=O)n3ccccc3nc21 | inconclusive: 5.62 µM [inhibitor, single point] | –
CCOC(=O)c1nnn(CC(=O)N2N=C(c3ccccc3)CC2c2ccccc2)c1C(=O)OCC (stereo not drawn) | – | inactive: -21.8%
Cn1c(=O)[nH]c(=O)c2c1nc(Sc1nc3ccccc3[nH]1)n2CCCc1ccccc1 | inconclusive: 39.8 µM [inhibitor, partial curve, poor fit] | –
O=C(Nc1ccc2oc(-c3ccc(F)cc3)nc2c1)c1ccc2c(c1)OCCO2 | inconclusive: 89.1 µM [inhibitor, partial curve, poor fit] | –
CCc1ccccc1N1CSC2=C(C#N)C(c3ccccc3F)CC(=O)N2C1 (stereo not drawn) | active: 3.16 µM | –
COc1ccc(Nc2ccc(S(=O)(=O)N3CCCCC3)cc2[N+](=O)[O-])cc1 | – | inactive: -12.6%
S=C(NCc1ccco1)N1CCN(c2nc(-c3ccc(Cl)cc3)cs2)CC1 | inconclusive: 50.1 µM [inhibitor, partial curve, poor fit] | –
O=C(CSc1nnc2ccccn12)c1ccc2c(c1)OCCO2 | inconclusive: 17.8 µM [inhibitor, full curve, poor fit] | –
Nc1nccnc1C(=O)NCc1csc(Br)c1 | inconclusive: 50.1 µM [inhibitor, single point] | –
CC1(C(=O)Nc2ccc3c(c2)OCCO3)CN(S(C)(=O)=O)CC(=O)N1CCc1c[nH]c2ccccc12 (stereo not drawn) | inconclusive: 126 µM [inhibitor, single point] | –
COc1ccc(N2CCN(C(=O)CCCSc3nc4ccccc4[nH]3)CC2)cc1 | inconclusive: 44.7 µM [inhibitor, partial curve, poor fit] | –
O=C(c1ccc(Cl)cc1)N(Cc1ccco1)c1ccc(O)cc1 | inconclusive: 79.4 µM [inhibitor, partial curve, poor fit] | –
Cc1cnc2c(S(=O)(=O)NCC3CC3)cccc2c1 | inconclusive: 100 µM [inhibitor, single point] | –
COCCCNc1nc2ccccc2nc1N(C)S(=O)(=O)c1ccc(C)cc1 | inconclusive: 79.4 µM [inhibitor, single point] | –
Oc1ccc(C=NN=C2c3ccccc3-c3ccccc32)c(O)c1 | inconclusive: 44.7 µM [inhibitor, partial curve, poor fit] | –
CC(C)=CC1C(C(=O)Nc2c(C)cccc2C(C)C)C1(C)C (stereo not drawn) | inconclusive: 25.1 µM [inhibitor, single point] | –
CCOC(=O)C1CCCN(Cc2ccccc2C)C1 (stereo not drawn) | inconclusive: 1.41 µM [inhibitor, full curve, poor fit] | –
Cn1c(CC(=O)Nc2ccc(Cl)cc2)nnc1SCC(=O)NC12CC3CC(CC(C3)C1)C2 | inconclusive: 89.1 µM [inhibitor, partial curve, poor fit] | –
CSCCNC(=O)C1CN(c2cccc(Cl)c2)C(=O)N1 (stereo not drawn) | inconclusive: 50.1 µM [inhibitor, full curve, poor fit] | –
